Data source: PubChem BioAssay AID1053208 (Peter MacCallum Cancer Centre, 2014)

- Screen: 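Find knock-downs that sensitise mouse osteosarcoma cells to doxorubicin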 (primary screen)
- Cell system: mouse osteosarcoma cells, early-passage culture from an engineered mouse model of fibroblastic bone tumour
- Knock-down reagent: siRNA pool against mouse genes, 40 nM
- Time to read-out: about 120 h (48 h before drug, then 72 h with drug)
- Conditions: doxorubicin 100 nM for 72 h, roughly 30-40% inhibitory dose
- Measurement: 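Viability read as ATP luminescence after 72 h of 100 nM doxorubicin or none, duplicate wells averaged, scaled to non-targeting siRNA, then expressed as robust z-scores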
- Direction: viability z-score with doxorubicin: higher = more viable cells under doxorubicin; viability z-score without drug: higher = more viable cells with knock-down alone
- Call rule: 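a pool counts as active when its viability z-score with doxorubicin is -2 or below and its z-score without drug lies between -2 and 2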
In all, the deposit lists about 17,000 reagents; this is an unselected part. 788 of them (4.7%) were called active. 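Calls rest on z-score classes alone; an extra cut-off of viability at most 70% of control was not applied to them.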 Not all columns of the deposit are shown.

| target | combined z-score class | viability z-score with doxorubicin | viability z-score without drug | Outcome |
| --- | --- | --- | --- | --- |
| Cetn3 (GeneID 12626) | no change with or without drug | -0.56 | -1.35 | inactive |
| Ptges2 (GeneID 96979) | no change with or without drug | 0.45 | 0.34 | inactive |
| Htt (GeneID 15194) | no change with or without drug | 0.79 | 0.17 | inactive |
| Htr5b (GeneID 15564) | no change with or without drug | -0.67 | -1.18 | inactive |
| Fnbp1l (GeneID 214459) | no change with or without drug | 0.22 | -0.84 | inactive |
| Or1n1b (GeneID 258943) | no change with or without drug | 0 | -1.52 | inactive |
| Iyd (GeneID 70337) | no change with or without drug | 1.57 | 0.51 | inactive |
| Tecr (GeneID 106529) | no change with or without drug | 0.22 | 0.51 | inactive |
| Tpbpa (GeneID 21984) | no change with or without drug | 0.11 | -1.18 | inactive |
| Vmn2r26 (GeneID 56552) | no change with or without drug | -1.12 | 1.01 | inactive |
| Nsg2 (GeneID 18197) | no change with or without drug | 1.01 | 1.52 | inactive |
| Wnt5b (GeneID 22419) | no change with or without drug | 0.45 | 0.67 | inactive |
| Taok1 (GeneID 216965) | no change with or without drug | -0.22 | 1.18 | inactive |
| Elovl6 (GeneID 170439) | no change with or without drug | -1.57 | 1.85 | inactive |
| Chn2 (GeneID 69993) | no change with or without drug | 0.45 | 1.01 | inactive |
| Nop10 (GeneID 66181) | no change with or without drug | -1.12 | -1.18 | inactive |
| 4632425D07RIK | no change with or without drug | 1.01 | 1.18 | inactive |
| Rnf139 (GeneID 75841) | no change with or without drug | 1.12 | 0.51 | inactive |
| Slc37a1 (GeneID 224674) | no change with or without drug | -1.12 | 0.17 | inactive |
| Dhps (GeneID 330817) | no change with or without drug | 0.34 | -0.17 | inactive |
| Arid4b (GeneID 94246) | no change with or without drug | -1.57 | -1.52 | inactive |
| Gns (GeneID 75612) | no change with or without drug | 0.45 | -0.51 | inactive |
| Canx (GeneID 12330) | no change with or without drug | 0.9 | 1.18 | inactive |
| Rps15 (GeneID 20054) | low cell count with and without drug | -6.41 | -4.89 | inactive |
| Or5b96 (GeneID 258699) | no change with or without drug | 0.22 | 0.67 | inactive |
| Acadvl (GeneID 11370) | no change with or without drug | -0.34 | -0.84 | inactive |
| Scn1b (GeneID 20266) | no change with or without drug | 0.79 | -0.17 | inactive |
| Tnfrsf9 (GeneID 21942) | no change with or without drug | 0.9 | 0.67 | inactive |
| Ncbp3 (GeneID 66874) | no change with or without drug | -1.12 | 0.51 | inactive |
| Adprs (GeneID 100206) | no change with or without drug | 0.9 | 0.17 | inactive |
| Dhx38 (GeneID 64340) | no change with or without drug | 0.45 | 0.67 | inactive |
| Ccnc (GeneID 51813) | no change with or without drug | 0.56 | -0.17 | inactive |
| Rnf112 (GeneID 22671) | no change with or without drug | -1.12 | -0.51 | inactive |
| Rasl10a (GeneID 75668) | no change with or without drug | -0.56 | 0.84 | inactive |
| Or2a54 (GeneID 258649) | low cell count without drug only | -1.12 | -2.02 | inactive |
| Cd79a (GeneID 12518) | low cell count with doxorubicin only | -2.7 | -0.67 | active |
| Ca3 (GeneID 12350) | low cell count with doxorubicin only | -2.14 | -1.85 | active |
| Galr3 (GeneID 14429) | no change with or without drug | 0.45 | -0.17 | inactive |
| H3c1 (GeneID 360198) | no change with or without drug | 0.79 | -0.17 | inactive |
| Myl12b (GeneID 67938) | no change with or without drug | 0.9 | -0.51 | inactive |
| Gpkow (GeneID 209416) | no change with or without drug | 0.79 | 1.18 | inactive |
| Atp5pf (GeneID 11957) | no change with or without drug | -1.24 | -0.51 | inactive |
| Eif4e3 (GeneID 66892) | no change with or without drug | 0.22 | 0.51 | inactive |
| Top2a (GeneID 21973) | high cell count with doxorubicin only | 2.36 | 0.51 | inactive |
| Rbm8a (GeneID 60365) | low cell count with and without drug | -7.76 | -3.2 | inactive |
| Serpina7 (GeneID 331535) | no change with or without drug | 0.67 | -0.51 | inactive |
| Tmem178 (GeneID 68027) | no change with or without drug | 0.56 | 0.67 | inactive |
| Aqp3 (GeneID 11828) | low cell count with doxorubicin only | -2.92 | -1.18 | active |
| Ccl3 (GeneID 20302) | no change with or without drug | 0.22 | 0.17 | inactive |
| Tpsb2 (GeneID 17229) | no change with or without drug | 0.67 | 0.17 | inactive |

Only “combined z-score class” (4 entries from above):
Wnt5b (GeneID 22419): no change with or without drug
Taok1 (GeneID 216965): no change with or without drug
Elovl6 (GeneID 170439): no change with or without drug
Chn2 (GeneID 69993): no change with or without drug
